Measurements reported in the supplement of paper PMC8256030.
Several values for one entry are separate records, joined by “and”; a condition that tells them apart may be missing. Equal entries are not always repeated. Structures can show the parent of a compound that is named as a salt. Some of the results follow. This data set is noisy: repeats of one test often differ as much as different tests do.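 HEK293T cells were given each compound shortly before transfection with a reporter in which red mCherry is followed by the SARS-CoV-2 frameshift element and then GFP in the −1 frame, so GFP appears only after frameshifting.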

How the values were obtained:
[1] = test system: SARS-CoV-2 -1 PRF reporter mCherry-FSE-GFP(-1); assay: mCherry (red) intensity as percent of control; higher = higher upstream reporter expression; conditions: 10 µM; 24 h; HEK293T
[2] = test system: SARS-CoV-2 -1 PRF reporter mCherry-FSE-GFP(-1); assay: percent effect, decrease of GFP/mCherry ratio (-1 PRF reporter) relative to controls; higher = stronger frameshift inhibition; conditions: 10 µM; 24 h; HEK293T

Structure (SMILES) | mCherry [1] | percent effect [2]
C[C@]12CCC(=O)C=C1CC[C@H]1[C@@H]3CC[C@](O)(C(=O)CO)[C@@]3(C)C[C@H](O)[C@@]12F [fludrocortisone] | 121% | -8.75%
O=C(Nc1ccc(O)cc1)c1ccccc1O [osalmid] | 96.3% | -2.12%
CC(C)NCC(O)c1ccc(NS(C)(=O)=O)cc1 (stereo unspecified) [Sotalol·HCl] | 99.3% | -1.23%
CC(C)(C)C(=O)OCOP(=O)(COCCn1cnc2c(N)ncnc21)OCOC(=O)C(C)(C)C [Hepsera] | 127% | 5.72%
O=C(O)CNC(=O)CNC(=O)CNC(=O)CSC(=O)c1ccccc1 [betiatide] | 65% | 2.92%
COc1ccc(/C=C/C(=O)Nc2ccccc2C(=O)O)cc1OC [tranilast] | 104% | -3.44%
C[C@H](CCC(=O)O)[C@H]1CC[C@H]2[C@@H]3[C@@H](O)C[C@@H]4C[C@H](O)CC[C@]4(C)[C@H]3CC[C@]12C [ursodeoxycholic acid] | 79% and 103% | -3.91% and -7.08%
CC(C)C[C@H](NC(=O)[C@@H](COC(C)(C)C)NC(=O)[C@H](Cc1ccc(O)cc1)NC(=O)[C@H](CO)NC(=O)[C@H](Cc1c[nH]c2ccccc12)NC(=O)[C@H](Cc1cnc[nH]1)NC(=O)[C@@H]1CCC(=O)N1)C(=O)N[C@@H](CCCNC(=N)N)C(=O)N1CCC[C@H]1C(=O)NNC(N)=O [Goserelin] | 78.6% and 91.7% | -2.34% and -0.186%
C[C@H](Cc1cc2c(c(C(N)=O)c1)N(CCCO)CC2)NCCOc1ccccc1OCC(F)(F)F [silodosin] | 103% | -0.336%
CC(C)C1O[C@H](CN)[C@@H](CN)O1.O=C([O-])CC(=O)[O-].[Pt+2] [eptaplatin] | 107% | -5.72%
CCC(=O)O[C@]1(C(=O)CCl)[C@@H](C)C[C@H]2[C@@H]3CCC4=CC(=O)C=C[C@]4(C)[C@@]3(F)[C@@H](O)C[C@@]21C [Temovate] | 117% | -4.73%
CCCCCCCN(CC)CCCC(O)c1ccc(NS(C)(=O)=O)cc1 (stereo unspecified) [ibutilide] | 87.8% | -5.09%
CN1CCc2cccc3c2[C@H]1Cc1ccc(O)c(O)c1-3 [(R)-(-)-Apomorphine·HCl] | 68.7% | 1.47%
NC[C@H]1O[C@H](O[C@H]2[C@H](O)[C@@H](O[C@H]3O[C@H](CO)[C@@H](O)[C@H](N)[C@H]3O)[C@H](N)C[C@@H]2N)[C@H](O)[C@@H](O)[C@@H]1O [Kantrex] | 107% | -10.3%
CCCN(CCC)S(=O)(=O)c1ccc(C(=O)O)cc1 [probenecid] | 101% | -1.75%
NNCCc1ccccc1 [phenelzine] | 81.1% | 6.09%
NCCCC[C@H](N[C@@H](CCc1ccccc1)C(=O)O)C(=O)N1CCC[C@H]1C(=O)O [Lisinopril] | 69.9% | -3.75%
Clc1ccc2nsnc2c1NC1=NCCN1 [Tizanidine·HCl] | 78.5% | 14.1%
NC(N)=Nc1nc(CSCC/C(N)=N/S(N)(=O)=O)cs1 | 86.5% | -1.44%
COC(=O)[C@@H]1CC2=CC(=O)CC[C@]2(C)[C@@]23O[C@@H]2C[C@@]2(C)[C@@H](CC[C@@]24CCC(=O)O4)[C@H]13 [eplerenone] | 76.3% | -5.28%
CCN(CC)C(=O)C1CN2CCc3cc(OC)c(OC)cc3C2CC1OC(C)=O (stereo unspecified) [benzquinamide] | 101% | -9.21%
O=CN(O)CCCP(=O)(O)O [fosmidomycin] | 74.2% | -4.08%
CCCC(=O)c1ccc2c(c1)N(CCCN1CCN(C)CC1)c1ccccc1S2 [butaperazine] | 62.4% | 0.499%
CN1CCN(CC/C=C2/c3ccccc3Sc3ccc(S(=O)(=O)N(C)C)cc32)CC1 | 119% | -1.4%
CN(C)CCC=C1c2ccccc2COc2ccccc21 | 109% | -3.99%
CCCCC(C(=O)O)C(=O)N(Nc1ccccc1)c1ccccc1 (stereo unspecified) [bumadizone] | 79.4% | -2.31%
CC[C@]1(O)C[C@H]2CN(CCc3c([nH]c4ccccc34)[C@@](C(=O)OC)(c3cc4c(cc3OC)N(C=O)[C@H]3[C@@](O)(C(=O)OC)[C@H](OC(C)=O)[C@]5(CC)C=CCN6CC[C@]43[C@@H]65)C2)C1 | 35.9% | -28.1%

Another view of three compounds above.
O=C(Nc1ccc(O)cc1)c1ccccc1O [osalmid]
  mCherry [1]: 96.3%; percent effect [2]: -2.12%
C[C@H](CCC(=O)O)[C@H]1CC[C@H]2[C@@H]3[C@@H](O)C[C@@H]4C[C@H](O)CC[C@]4(C)[C@H]3CC[C@]12C [ursodeoxycholic acid]
  mCherry [1]: 79% and 103%; percent effect [2]: -3.91% and -7.08%
CCCCCCCN(CC)CCCC(O)c1ccc(NS(C)(=O)=O)cc1 (stereo unspecified) [ibutilide]
  mCherry [1]: 87.8%; percent effect [2]: -5.09%

The listing continues.

Structure (SMILES) | mCherry [1] | percent effect [2]
COc1cc(C(=O)NS(=O)(=O)c2ccccc2C)ccc1Cc1cn(C)c2ccc(NC(=O)OC3CCCC3)cc12 [zafirlukast] | 77.5% | -0.873%
COc1ccc2cc(CCC(C)=O)ccc2c1 [nabumetone] | 76.2% and 90.3% | -3.18% and -5.83%
CN(C)CCN(Cc1ccc(Cl)cc1)c1ccccn1 | 101% | -0.793%
O=c1[nH]c2ccccc2c2cc(CO)nn12 [pirquinozol] | 71.7% | -2.91%
C[C@]12CCC(=O)C=C1CC[C@@H]1[C@@H]2[C@@H](O)C[C@@]2(C)[C@H]1CC[C@]2(O)C(=O)CS [tixocortol] | 98.2% | -4.56%
O=C(O)Cc1ccc2c(c1)C(=O)c1ccccc1CO2 [isoxepac] | 103% | -1.79%
S=C=Nc1ccc(N=C=S)cc1 [bitoscanate] | 94.5% | 1.84%
COc1cc2c(cc1OC)CN(C(=O)[C@H](C)N[C@@H](CCc1ccccc1)C(=O)O)[C@H](C(=O)O)C2 [moexiprilat] | 87.3% | 3.2%
Cn1cc(C(=O)[C@@H]2CCc3[nH]cnc3C2)c2ccccc21 [ramosetron] | 103% | -2.66%
CC(N)(Cc1ccc(O)cc1)C(=O)O (stereo not drawn) [racemetirosine] | 106% | -3.83%
CC(C)(Oc1ccc(Cl)cc1)C(=O)O [clofibric acid] | 87% | -0.642%
NS(=O)(=O)c1cc2c(cc1Cl)NC(CSCC(F)(F)F)NS2(=O)=O (stereo unspecified) [epitizide] | 107% | -2.19%
CNC(=O)c1ccc(Cl)c(S(=O)(=O)NC)c1 [tiamizide] | 111% | -0.327%
CC(C)(C(=O)c1cccnc1)c1cccnc1 [metyrapone] | 98.5% | 2.36%
COC(=O)Nc1nc2cc(C(=O)c3ccccc3)ccc2[nH]1 [mebendazole] | 106% | -5.76%
CC(C)(CO)[C@@H](O)C(=O)NCCCO [dexpanthenol] | 87% | -2.1%
O=C(C[S+]([O-])Cc1ccco1)NC/C=C\COc1cc(CN2CCCCC2)ccn1 (stereo unspecified) [lafutidine] | 95.5% | -1.81%
CN1CCC[C@@H]1CCO[C@](C)(c1ccccc1)c1ccc(Cl)cc1 | 109% | -2.36%
O=S(=O)(O)Oc1ccc(C(c2ccc(OS(=O)(=O)O)cc2)c2ccccn2)cc1 [picosulfate] | 71.6% | -11.4%
CC(=O)OCC1=C(C(=O)O)N2C(=O)[C@@H](NC(=O)[C@H](N)c3ccccc3)[C@H]2SC1 [cefaloglycin] | 102% | -2.84%
CC(=O)/N=c1/sc(S(N)(=O)=O)nn1C [methazolamide] | 94.1% | 2.11%
C[C@H]1CN(C[C@H](Cc2ccccc2)C(=O)NCC(=O)O)CC[C@@]1(C)c1cccc(O)c1 [alvimopan] | 85.2% | -6.68%
CCN(CC)CC(=O)Oc1ccc(NC(C)=O)cc1 [propacetamol] | 100% | -6.61%
O=C1Nc2ccc(Cl)cc2[C@@](C#CC2CC2)(C(F)(F)F)O1 [efavirenz] | 90.8% | -3.81%
C[C@@H]1C(=O)O[C@H]2C[C@@]34[C@H]5C[C@@H](C(C)(C)C)[C@]36[C@@H](OC(=O)[C@@H]6O)O[C@@]4(C(=O)O5)[C@]21O [Ginkgolide A] | 78.9% | -2.45%
O=C(O)CC/C=C\CC[C@@H]1[C@@H](N2CCCCC2)[C@@H](O)C[C@@H]1OCc1ccc(-c2ccccc2)cc1 [vapiprost] | 90.8% | -0.129%
